From article PMC9440026 come the findings set out here.

Amino acid sequences for entries named in this document (tags omitted).
UniProt P60766: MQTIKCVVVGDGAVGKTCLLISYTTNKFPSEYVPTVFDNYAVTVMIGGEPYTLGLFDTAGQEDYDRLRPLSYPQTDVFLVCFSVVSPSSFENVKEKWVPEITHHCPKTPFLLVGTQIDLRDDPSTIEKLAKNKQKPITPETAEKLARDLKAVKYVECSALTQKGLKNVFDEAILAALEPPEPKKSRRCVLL
UniProt Q8BTI9: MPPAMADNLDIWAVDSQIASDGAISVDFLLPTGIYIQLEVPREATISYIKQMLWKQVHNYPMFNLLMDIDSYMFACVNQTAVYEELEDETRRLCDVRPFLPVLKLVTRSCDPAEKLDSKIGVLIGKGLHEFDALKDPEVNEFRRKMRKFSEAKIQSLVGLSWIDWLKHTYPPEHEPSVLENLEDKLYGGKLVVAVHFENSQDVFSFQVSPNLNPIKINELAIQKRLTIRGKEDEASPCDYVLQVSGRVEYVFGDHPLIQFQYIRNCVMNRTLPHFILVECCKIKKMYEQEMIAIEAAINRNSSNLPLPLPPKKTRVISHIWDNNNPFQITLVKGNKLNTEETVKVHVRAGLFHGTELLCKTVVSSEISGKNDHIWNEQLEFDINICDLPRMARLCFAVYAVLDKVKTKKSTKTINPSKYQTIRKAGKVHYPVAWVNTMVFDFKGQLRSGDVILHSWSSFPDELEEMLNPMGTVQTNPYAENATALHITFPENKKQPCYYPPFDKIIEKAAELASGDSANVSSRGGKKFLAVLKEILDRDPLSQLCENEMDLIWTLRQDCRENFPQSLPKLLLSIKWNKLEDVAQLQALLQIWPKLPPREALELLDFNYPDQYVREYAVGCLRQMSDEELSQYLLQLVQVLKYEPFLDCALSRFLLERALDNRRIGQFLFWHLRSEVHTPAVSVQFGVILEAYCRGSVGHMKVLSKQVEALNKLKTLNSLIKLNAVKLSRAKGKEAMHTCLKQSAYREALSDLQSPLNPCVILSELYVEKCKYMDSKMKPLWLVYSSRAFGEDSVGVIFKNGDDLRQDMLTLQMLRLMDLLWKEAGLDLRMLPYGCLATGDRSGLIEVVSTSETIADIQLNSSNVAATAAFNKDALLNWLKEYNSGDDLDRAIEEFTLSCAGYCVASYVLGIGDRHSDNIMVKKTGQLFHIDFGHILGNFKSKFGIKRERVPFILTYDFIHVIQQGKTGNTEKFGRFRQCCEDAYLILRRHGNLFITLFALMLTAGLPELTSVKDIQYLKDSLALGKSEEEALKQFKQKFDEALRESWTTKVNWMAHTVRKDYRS

These are yes or no findings as the source states them, for the method shown. In cells and extracts the contact can be indirect. Some results given as binding are weak or reduced against the parent protein; the word gives no strength.

The assay addresses CDC42 (mouse (endogenous in oviductal organoids)) (UniProt P60766). Nature of the assay: co-IP; 500 μg whole-cell protein from differentiated oviductal organoids, 2 μg anti-CDC42 antibody overnight at 4 °C, Dynabeads Protein A 3 h at 4 °C, three washes; western blot for CDC42 and p110β; rabbit IgG as control immunoprecipitation. (In general: A western blot detects proteins with antibodies after separation by electrophoresis.)

Turning to “PI3 Kinase p110β (from UniProt Q8BTI9 1-1064)”, the binding result is given as “binds”.
